Here are results for 2 molecules from PubChem BioAssay AID210 (DTP/NCI, 2004).

For the test, the system named is CD2F1 mice, ip Colon 26 adenocarcinoma, median survival T/C. Put plainly: NCI In Vivo Anticancer Drug Screen. Data for tumor model Colon 26 Adenocarcinoma (intraperitoneal) in CD2F1 (CDF1) mice. The settings on record: T/C endpoint: median survival time, higher T/C = longer survival. On the procedure: The antitumor activity of compounds was measured in mice bearing transplantable tumors. Survival or tumor size were measured and the results are expressed as the measurement made in the treated group (T) divided by the measurement made in the vehicle treated control group (C). The tumor model used in this assay is Colon 26 Adenocarcinoma (intraperitoneal) in CD2F1 (CDF1) mice

The list is a part of this screen's results and no random one: it gathers some chemical classes. Not every dose and run of a compound is shown. T/C gives the treated animals as a percentage of the vehicle group. Where survival is the endpoint, the PubChem record calls one and a half times the control and up active, and a quarter to a half above the control has no call in these data; cut-offs in other NCI protocols can differ. Schedule codes are those of the source, taken here to give the interval after Q, in days (D) or hours (H), and the number of doses after X. Some T/C values are marked as having no survivor count here; that says nothing about deaths at the dose. Some doses were run more than once; their values stand side by side, smallest first.

As for `C[N+](CCCl)(CCCl)Cc1ccc([N+](=O)[O-])cc1`, the T/C (dose: 6.25 mg/kg/injection, schedule: Q04DX003 (ip), vehicle: saline) is 135 % of control [survivor count not shown]; the T/C (dose: 12.5 mg/kg/injection, schedule: Q04DX003 (ip), vehicle: saline) is 158 % of control [survivor count not shown]; the T/C (dose: 25.0 mg/kg/injection, schedule: Q04DX003 (ip), vehicle: saline) is 162 % of control [survivor count not shown].

For the molecule `CC1=CC(=O)C(N(CCCl)CCCl)=CC1=O`, the T/C was 152 % of control (dose: 0.39 mg/kg/injection, schedule: Q04DX002 (ip), vehicle: Klucel (hydroxypropylcellulose) (HPC)); 188 % of control (dose: 0.78 mg/kg/injection, schedule: Q04DX002 (ip), vehicle: Klucel (hydroxypropylcellulose) (HPC), evaluated on day 60); 128 % of control [survivor count not shown] (dose: 0.78 mg/kg/injection, schedule: Q04DX002 (ip), vehicle: Klucel (hydroxypropylcellulose) (HPC), evaluation day not shown); 192 % of control (dose: 1.56 mg/kg/injection, schedule: Q04DX002 (ip), vehicle: Klucel (hydroxypropylcellulose) (HPC), evaluated on day 60); 183 % of control [survivor count not shown] (dose: 1.56 mg/kg/injection, schedule: Q04DX002 (ip), vehicle: Klucel (hydroxypropylcellulose) (HPC), evaluation day not shown); 188 % of control (dose: 3.13 mg/kg/injection, schedule: Q04DX002 (ip), vehicle: Klucel (hydroxypropylcellulose) (HPC), evaluated on day 60). The T/C reads like this: (dose: 3.13 mg/kg/injection, schedule: Q04DX002 (ip), vehicle: Klucel (hydroxypropylcellulose) (HPC), evaluation day not shown) 199 % of control [survivor count not shown]; (dose: 6.25 mg/kg/injection, schedule: Q04DX002 (ip), vehicle: Klucel (hydroxypropylcellulose) (HPC)) 235 [survivor count not shown] and 239 % of control [survivor count not shown].
